Construct, isoform or probe ends are uncertain for at least one entry.

The chains behind the UniProt entries cited, without tags or fusion partners. Where a name states a change or a piece, a line headed by the entry shows the natural chain unless it says otherwise.
UniProt Q60793: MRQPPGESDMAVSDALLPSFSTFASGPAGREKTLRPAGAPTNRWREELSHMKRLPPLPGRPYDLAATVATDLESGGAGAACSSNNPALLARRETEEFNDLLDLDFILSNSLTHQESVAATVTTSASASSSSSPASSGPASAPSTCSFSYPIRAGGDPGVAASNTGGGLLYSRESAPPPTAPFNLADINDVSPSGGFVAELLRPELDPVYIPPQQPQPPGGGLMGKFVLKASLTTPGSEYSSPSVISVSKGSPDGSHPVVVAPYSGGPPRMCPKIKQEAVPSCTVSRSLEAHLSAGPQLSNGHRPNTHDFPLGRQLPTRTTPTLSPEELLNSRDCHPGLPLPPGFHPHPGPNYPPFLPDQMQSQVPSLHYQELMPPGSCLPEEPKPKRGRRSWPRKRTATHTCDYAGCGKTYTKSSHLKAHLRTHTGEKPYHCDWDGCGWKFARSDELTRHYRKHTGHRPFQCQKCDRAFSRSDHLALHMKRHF

For this series, the target named is GST-Klf4-K232R (Mus musculus) (UniProt Q60793). In words: EMSA. The following applies: affinity comparable to wt; LightShift Chemiluminescent EMSA Kit (Thermo Scientific), per manufacturer; pH and temperature not stated; recombinant protein; protein details: GST (N-term, pGEX-6P-1). (In EMSA bound probe runs differently from free probe, usually more slowly.)

“GCCGCCTGGGTGCCTGGGAGAATAGGGGGTGGGTAGGGTAGGAGGCTTG (double strand) [Nanog promoter probe]”: the binding result was “binds”.

Source of the values: publication PMC5871780, “Klf4 glutamylation is required for cell reprogramming and early embryonic development in mice”.
